Values from PubChem BioAssay AID504808 (Drosophila RNAi Screening Center, 2011)

Purpose: 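Fly genes required to hold E2F transcription in check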 (primary screen)
Cells: Drosophila S2 cells
Reagent: long dsRNA against Drosophila genes
Measurement: 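Firefly luciferase driven by E2F sites, normalised to Renilla luciferase on the same minimal promoter, measured by plate reader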
Reading the numbers: E2F firefly: higher = more E2F reporter activity; Renilla normaliser: higher = more normaliser reporter signal
Rule for the call: 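a knock-down counted as active when the firefly/Renilla E2F signal rose above 50%, a threshold chosen arbitrarily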
The deposit covers about 21,000 reagents; below is an unselected part of those with a known target gene and a result. Over the whole deposit, 18 (0.084%) got an active call. 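Raw counts without plate normalisation, one of two replicates; the ratio scores behind the calls were not deposited.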 Names joined by + are all predicted targets of the reagent. Reagent sequences are not shown. Not given: the amount of reagent, the time to read-out.

Silencing of CG11409 [SID104198371] resulted in: E2F firefly, rep 1 = 1859; Renilla normaliser, rep 1 = 816; inactive.
Depletion of PIG-Wb (Phosphatidylinositol glycan anchor biosynthesis class W b) [SID104188318] resulted in: E2F firefly, rep 1 = 88827; Renilla normaliser, rep 1 = 4072; inactive.
For kel (kelch) [SID104183346], the values are E2F firefly, rep 1 = 1.09e5; Renilla normaliser, rep 1 = 4580; inactive.
After knock-down of CG15529 [SID104194858], the screen gave E2F firefly, rep 1 = 1.03e5; Renilla normaliser, rep 1 = 5858; inactive.
For crm (cramped) [SID104198546], the values are E2F firefly, rep 1 = 2068; Renilla normaliser, rep 1 = 884; inactive.
Knock-down of CG31465 [SID104195882] gave: E2F firefly, rep 1 = 70658; Renilla normaliser, rep 1 = 2950; inactive.
Depletion of bchs (blue cheese) [SID104182918] gave: E2F firefly, rep 1 = 1.30e5; Renilla normaliser, rep 1 = 4394; inactive.
For CG13992 [SID104182116], the values are E2F firefly, rep 1 = 1.52e5; Renilla normaliser, rep 1 = 5594; inactive.
Against Snm1 [SID104191922] the deposit lists E2F firefly, rep 1 = 69099; Renilla normaliser, rep 1 = 4113; inactive.
For Ku80 [SID104182491], the entry reads E2F firefly, rep 1 = 93609; Renilla normaliser, rep 1 = 4249; inactive.
For CG10459 [SID104185783], the values are E2F firefly, rep 1 = 1.47e5; Renilla normaliser, rep 1 = 5351; inactive.
With knock-down of CG33679 [SID104181228], the record shows E2F firefly, rep 1 = 1.34e5; Renilla normaliser, rep 1 = 5423; inactive.
Against boca [SID104186200], the entry reads E2F firefly, rep 1 = 1.39e5; Renilla normaliser, rep 1 = 4661; inactive.
Silencing of PolD2 (DNA polymerase delta subunit 2) [SID104187939] gave: E2F firefly, rep 1 = 66679; Renilla normaliser, rep 1 = 3759; inactive.
CG15765 [SID104197863] scored E2F firefly, rep 1 = 6321; Renilla normaliser, rep 1 = 760; inactive.
Against CG8407 [SID104186959], the values are E2F firefly, rep 1 = 82707; Renilla normaliser, rep 1 = 3560; inactive.
With knock-down of Lfg (Lifeguard) [SID104186645] the results were E2F firefly, rep 1 = 1.06e5; Renilla normaliser, rep 1 = 4592; inactive.
After knock-down of Rop (Ras opposite) [SID104188485], the record shows E2F firefly, rep 1 = 61532; Renilla normaliser, rep 1 = 3390; inactive.
For LysD + LysC (retired record) [SID104188466] the deposit lists E2F firefly, rep 1 = 1.06e5; Renilla normaliser, rep 1 = 4567; inactive.

Looked up above:
Result for kel (kelch) [SID104183346] in “Renilla normaliser, rep 1”: 4580
Entry of CG11409 [SID104198371] in “E2F firefly, rep 1”: 1859
